Reference: paper PMC5548745, “Agonist-induced dimer dissociation as a macromolecular step in G protein-coupled receptor signaling” (Nature Communications, 2017)

Test system: FZD6 receptor complex in living HEK293 cells
Experiment: FCS translational diffusion time of FZD6-GFP constructs
Assay type: cell-based, human
Settings: C59 5 µM overnight, N = 17 (wt), 14 (dimer mutant) cells

Molecule	transit (translational diffusion) time τ D [ms]
FZD6 dimer mutant: D365A, R368A, Y369A triple mutant of FZD6 (protein, left off: GFP, C-terminal, kept) HSLFTCEPITVPRCMKMAYNMTFFPNLMGHYDQSIAAVEMEHFLPLANLECSPNIETFLCKAFVPTCIEQIHVVPPCRKLCEKVYSDCKKLIDTFGIRWPEELECDRLQYCDETVPVTFDPHTEFLGPQKKTEQVQRDIGFWCPRHLKTSGGQGYKFLGIDQCAPPCPNMYFKSDELEFAKSFIGTVSIFCLCATLFTFLTFLIDVRRFRYPERPIIYYSVCYSIVSLMYFIGFLLGDSTACNKADEKLELGDTVVLGSQNKACTVLFMLLYFFTMAGTVWWVILTITWFLAAGRKWSCEAIEQKAVWFHAVAWGTPGFLTVMLLAMNKVEGDNISGVCFVGLYDLAASAAFVLLPLCLCVFVGLSLLLAGIISLNHVRQVIQHDGRNQEKLKKFMIRIGVFSGLYLVPLVTLLGCYVYEQVNRITWEITWVSDHCRQYHIPCPYQAKAKARPELALFMIKYLMTLIVGISAVFWVGSKKTCTEWAGFFKRNRKRDPISESRRVLQESCEFFLKHNSKVKHKKKHYKPSSHKLKVISKSMGTSTGATANHGTSAVAITSHDYLGQETLTEIQTSPETSMREVKADGASTPRLREQDCGEPASPAASISRLSGEQVDGKGQAGSVSESARSEGRISPKSDITDTGLAQSNNLQVPSSSEPSSLKGSTSLLVHPVSGVRKEQGGGCHSDT	30.1 ± 2.0
FZD6-GFP: GFP-tagged human FZD6 receptor construct (protein, left off: V5 (on the crosslinked copy), N-terminal, kept | mCherry (on the crosslinked copy), C-terminal, kept | GFP (on the other, mobile copy), C-terminal, kept, GFP-tagged human FZD6 receptor construct) HSLFTCEPITVPRCMKMAYNMTFFPNLMGHYDQSIAAVEMEHFLPLANLECSPNIETFLCKAFVPTCIEQIHVVPPCRKLCEKVYSDCKKLIDTFGIRWPEELECDRLQYCDETVPVTFDPHTEFLGPQKKTEQVQRDIGFWCPRHLKTSGGQGYKFLGIDQCAPPCPNMYFKSDELEFAKSFIGTVSIFCLCATLFTFLTFLIDVRRFRYPERPIIYYSVCYSIVSLMYFIGFLLGDSTACNKADEKLELGDTVVLGSQNKACTVLFMLLYFFTMAGTVWWVILTITWFLAAGRKWSCEAIEQKAVWFHAVAWGTPGFLTVMLLAMNKVEGDNISGVCFVGLYDLDASRYFVLLPLCLCVFVGLSLLLAGIISLNHVRQVIQHDGRNQEKLKKFMIRIGVFSGLYLVPLVTLLGCYVYEQVNRITWEITWVSDHCRQYHIPCPYQAKAKARPELALFMIKYLMTLIVGISAVFWVGSKKTCTEWAGFFKRNRKRDPISESRRVLQESCEFFLKHNSKVKHKKKHYKPSSHKLKVISKSMGTSTGATANHGTSAVAITSHDYLGQETLTEIQTSPETSMREVKADGASTPRLREQDCGEPASPAASISRLSGEQVDGKGQAGSVSESARSEGRISPKSDITDTGLAQSNNLQVPSSSEPSSLKGSTSLLVHPVSGVRKEQGGGCHSDT	52.4 ± 4.1
